Data: the supplement of paper PMC11732987, “Enantioselective OTUD7B fragment discovery through chemoproteomics screening and high-throughput optimisation” (Communications Chemistry, 2025)
The list shows a part of the results. The data scatter; read single values as rough.

Chains of the proteins cited; added tags and fusions are not shown. Lines headed by an entry give the natural chain unless they say otherwise; changes in a name come on top. Residues count along the entry.
UniProt Q8IV38: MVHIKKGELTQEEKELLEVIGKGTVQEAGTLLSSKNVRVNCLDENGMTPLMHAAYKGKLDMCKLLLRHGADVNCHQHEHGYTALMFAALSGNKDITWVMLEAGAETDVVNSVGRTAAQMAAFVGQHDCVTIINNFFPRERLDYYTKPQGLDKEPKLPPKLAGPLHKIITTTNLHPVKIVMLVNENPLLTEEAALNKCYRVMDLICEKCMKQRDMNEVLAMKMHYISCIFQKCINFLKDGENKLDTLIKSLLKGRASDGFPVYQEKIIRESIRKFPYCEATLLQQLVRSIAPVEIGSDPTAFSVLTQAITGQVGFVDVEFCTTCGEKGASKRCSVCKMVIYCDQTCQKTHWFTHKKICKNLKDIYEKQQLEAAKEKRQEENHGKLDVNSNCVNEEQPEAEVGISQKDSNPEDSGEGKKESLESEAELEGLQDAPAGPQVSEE
UniProt Q9H2C2, 14-33: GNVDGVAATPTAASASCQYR
UniProt Q9Y6D6: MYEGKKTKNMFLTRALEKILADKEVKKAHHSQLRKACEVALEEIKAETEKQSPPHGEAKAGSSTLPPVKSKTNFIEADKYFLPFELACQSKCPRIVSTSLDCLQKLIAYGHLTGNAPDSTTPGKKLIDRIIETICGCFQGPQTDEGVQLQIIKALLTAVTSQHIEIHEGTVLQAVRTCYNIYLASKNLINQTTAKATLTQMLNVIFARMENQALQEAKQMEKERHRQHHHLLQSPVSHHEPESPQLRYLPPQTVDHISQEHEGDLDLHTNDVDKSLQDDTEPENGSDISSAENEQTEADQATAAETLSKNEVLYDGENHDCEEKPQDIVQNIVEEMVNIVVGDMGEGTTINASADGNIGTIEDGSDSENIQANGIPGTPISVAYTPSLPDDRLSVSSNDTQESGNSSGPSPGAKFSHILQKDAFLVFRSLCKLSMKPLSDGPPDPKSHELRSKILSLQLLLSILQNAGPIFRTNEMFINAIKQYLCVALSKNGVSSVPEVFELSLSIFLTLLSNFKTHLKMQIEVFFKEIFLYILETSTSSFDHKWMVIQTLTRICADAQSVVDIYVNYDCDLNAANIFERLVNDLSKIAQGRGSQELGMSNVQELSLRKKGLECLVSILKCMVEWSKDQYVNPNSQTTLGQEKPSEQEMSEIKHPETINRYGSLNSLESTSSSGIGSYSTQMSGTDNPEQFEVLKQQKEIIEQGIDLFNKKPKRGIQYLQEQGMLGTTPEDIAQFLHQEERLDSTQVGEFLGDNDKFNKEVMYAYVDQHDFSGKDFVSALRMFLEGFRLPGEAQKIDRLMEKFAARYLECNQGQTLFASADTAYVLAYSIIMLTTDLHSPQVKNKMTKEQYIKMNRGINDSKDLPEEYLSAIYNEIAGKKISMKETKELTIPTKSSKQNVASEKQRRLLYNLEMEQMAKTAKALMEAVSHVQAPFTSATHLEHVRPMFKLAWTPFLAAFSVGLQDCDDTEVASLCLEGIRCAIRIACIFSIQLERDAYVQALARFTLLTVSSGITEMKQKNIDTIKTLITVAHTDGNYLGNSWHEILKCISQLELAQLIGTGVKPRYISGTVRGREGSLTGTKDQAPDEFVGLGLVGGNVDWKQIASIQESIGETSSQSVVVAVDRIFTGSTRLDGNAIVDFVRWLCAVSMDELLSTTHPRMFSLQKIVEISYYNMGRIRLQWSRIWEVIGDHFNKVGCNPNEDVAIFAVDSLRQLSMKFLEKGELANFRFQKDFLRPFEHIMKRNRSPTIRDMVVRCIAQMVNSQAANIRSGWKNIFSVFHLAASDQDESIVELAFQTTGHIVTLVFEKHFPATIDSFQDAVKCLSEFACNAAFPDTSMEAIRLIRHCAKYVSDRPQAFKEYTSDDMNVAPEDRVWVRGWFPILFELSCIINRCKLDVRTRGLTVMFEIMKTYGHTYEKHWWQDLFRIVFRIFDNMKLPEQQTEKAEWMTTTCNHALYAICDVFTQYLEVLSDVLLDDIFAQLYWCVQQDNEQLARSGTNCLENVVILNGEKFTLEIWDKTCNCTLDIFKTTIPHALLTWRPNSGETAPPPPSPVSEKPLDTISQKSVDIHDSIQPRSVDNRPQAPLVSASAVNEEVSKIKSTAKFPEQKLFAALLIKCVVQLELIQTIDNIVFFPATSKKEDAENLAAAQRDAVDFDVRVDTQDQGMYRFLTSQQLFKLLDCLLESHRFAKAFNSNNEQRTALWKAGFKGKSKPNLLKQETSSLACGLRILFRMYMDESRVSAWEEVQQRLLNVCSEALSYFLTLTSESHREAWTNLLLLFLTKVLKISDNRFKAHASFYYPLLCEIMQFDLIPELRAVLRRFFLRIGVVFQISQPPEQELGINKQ
UniProt Q8N3C0: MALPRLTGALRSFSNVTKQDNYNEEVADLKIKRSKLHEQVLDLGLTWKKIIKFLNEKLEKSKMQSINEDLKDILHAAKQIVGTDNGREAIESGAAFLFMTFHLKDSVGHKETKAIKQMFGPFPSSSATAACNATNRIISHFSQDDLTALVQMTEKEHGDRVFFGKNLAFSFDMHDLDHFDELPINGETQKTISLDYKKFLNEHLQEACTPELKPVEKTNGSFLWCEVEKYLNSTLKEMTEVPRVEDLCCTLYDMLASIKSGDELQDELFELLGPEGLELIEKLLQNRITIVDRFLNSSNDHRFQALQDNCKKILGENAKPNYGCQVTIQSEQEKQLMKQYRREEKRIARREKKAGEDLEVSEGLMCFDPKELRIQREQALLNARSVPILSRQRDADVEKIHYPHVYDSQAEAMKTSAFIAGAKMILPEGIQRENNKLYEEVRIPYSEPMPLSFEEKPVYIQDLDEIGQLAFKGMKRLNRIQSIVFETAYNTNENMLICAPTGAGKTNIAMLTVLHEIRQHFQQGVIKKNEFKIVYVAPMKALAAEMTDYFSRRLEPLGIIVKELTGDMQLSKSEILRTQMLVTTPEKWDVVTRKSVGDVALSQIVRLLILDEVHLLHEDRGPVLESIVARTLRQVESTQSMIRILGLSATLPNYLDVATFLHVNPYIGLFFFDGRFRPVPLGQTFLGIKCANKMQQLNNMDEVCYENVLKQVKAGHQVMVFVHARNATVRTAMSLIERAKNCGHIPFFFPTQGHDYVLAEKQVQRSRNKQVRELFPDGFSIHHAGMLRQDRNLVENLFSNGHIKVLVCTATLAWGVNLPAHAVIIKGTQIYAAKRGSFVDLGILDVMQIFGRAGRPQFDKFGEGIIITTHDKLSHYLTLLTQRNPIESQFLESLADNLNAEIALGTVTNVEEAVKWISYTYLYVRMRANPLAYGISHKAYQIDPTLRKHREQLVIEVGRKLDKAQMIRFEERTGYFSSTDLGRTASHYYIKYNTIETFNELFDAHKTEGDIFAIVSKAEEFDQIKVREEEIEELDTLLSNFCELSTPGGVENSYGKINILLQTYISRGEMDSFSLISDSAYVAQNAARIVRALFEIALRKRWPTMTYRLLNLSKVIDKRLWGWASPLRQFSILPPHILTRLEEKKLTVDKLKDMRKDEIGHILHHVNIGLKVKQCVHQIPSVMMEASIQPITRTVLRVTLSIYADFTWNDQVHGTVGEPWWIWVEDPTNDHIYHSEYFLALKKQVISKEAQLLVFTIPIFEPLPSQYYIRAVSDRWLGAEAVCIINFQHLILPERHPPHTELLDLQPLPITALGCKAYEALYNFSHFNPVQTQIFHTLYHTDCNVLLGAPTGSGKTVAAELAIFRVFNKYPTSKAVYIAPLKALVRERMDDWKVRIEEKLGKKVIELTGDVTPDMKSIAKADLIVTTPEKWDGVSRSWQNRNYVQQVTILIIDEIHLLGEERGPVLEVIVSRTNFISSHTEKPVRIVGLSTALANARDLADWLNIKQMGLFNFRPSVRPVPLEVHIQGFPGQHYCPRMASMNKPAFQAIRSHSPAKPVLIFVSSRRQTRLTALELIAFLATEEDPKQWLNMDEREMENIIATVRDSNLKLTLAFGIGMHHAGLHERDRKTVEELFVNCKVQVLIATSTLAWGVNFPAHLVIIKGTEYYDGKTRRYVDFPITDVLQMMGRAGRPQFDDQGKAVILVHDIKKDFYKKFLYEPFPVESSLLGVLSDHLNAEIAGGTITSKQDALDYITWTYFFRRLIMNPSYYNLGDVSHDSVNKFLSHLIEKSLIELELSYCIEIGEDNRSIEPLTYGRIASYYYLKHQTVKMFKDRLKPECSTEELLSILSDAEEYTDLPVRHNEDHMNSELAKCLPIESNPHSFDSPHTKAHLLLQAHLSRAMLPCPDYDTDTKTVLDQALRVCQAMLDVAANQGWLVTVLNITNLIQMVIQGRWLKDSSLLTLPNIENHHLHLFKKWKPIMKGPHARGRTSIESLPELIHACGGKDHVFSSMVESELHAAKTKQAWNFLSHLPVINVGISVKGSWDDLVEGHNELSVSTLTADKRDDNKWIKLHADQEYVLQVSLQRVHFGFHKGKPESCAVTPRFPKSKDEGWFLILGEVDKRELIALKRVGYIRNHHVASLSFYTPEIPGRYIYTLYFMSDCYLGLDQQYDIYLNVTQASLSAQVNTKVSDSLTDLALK
UniProt P10398: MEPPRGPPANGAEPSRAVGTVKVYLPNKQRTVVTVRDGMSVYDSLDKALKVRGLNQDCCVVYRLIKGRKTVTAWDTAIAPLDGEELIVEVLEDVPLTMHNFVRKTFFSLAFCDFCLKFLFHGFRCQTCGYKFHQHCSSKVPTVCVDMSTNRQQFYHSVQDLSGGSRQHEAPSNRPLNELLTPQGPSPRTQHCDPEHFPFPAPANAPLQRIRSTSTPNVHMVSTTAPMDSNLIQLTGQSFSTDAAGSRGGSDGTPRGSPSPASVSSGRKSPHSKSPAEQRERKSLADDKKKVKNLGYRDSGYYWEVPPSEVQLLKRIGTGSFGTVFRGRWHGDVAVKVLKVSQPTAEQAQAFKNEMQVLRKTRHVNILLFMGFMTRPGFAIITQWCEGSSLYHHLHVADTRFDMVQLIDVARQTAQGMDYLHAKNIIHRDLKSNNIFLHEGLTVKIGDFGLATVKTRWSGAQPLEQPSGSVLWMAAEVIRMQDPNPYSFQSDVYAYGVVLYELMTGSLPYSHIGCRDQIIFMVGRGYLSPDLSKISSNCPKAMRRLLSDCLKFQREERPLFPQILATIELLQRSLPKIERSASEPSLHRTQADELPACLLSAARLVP
UniProt Q6NXE6: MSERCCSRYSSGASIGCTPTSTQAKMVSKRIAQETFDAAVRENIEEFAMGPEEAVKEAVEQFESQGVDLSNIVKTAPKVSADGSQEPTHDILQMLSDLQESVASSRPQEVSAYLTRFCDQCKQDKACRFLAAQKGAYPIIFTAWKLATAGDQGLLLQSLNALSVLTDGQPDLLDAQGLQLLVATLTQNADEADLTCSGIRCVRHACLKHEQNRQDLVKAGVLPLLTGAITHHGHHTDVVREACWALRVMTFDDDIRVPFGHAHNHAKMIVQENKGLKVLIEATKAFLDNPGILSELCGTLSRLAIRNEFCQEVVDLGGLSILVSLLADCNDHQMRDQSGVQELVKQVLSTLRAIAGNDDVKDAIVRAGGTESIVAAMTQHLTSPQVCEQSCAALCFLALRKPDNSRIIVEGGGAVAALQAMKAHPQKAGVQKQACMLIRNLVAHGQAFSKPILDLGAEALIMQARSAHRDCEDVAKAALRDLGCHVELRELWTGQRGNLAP
UniProt Q13795: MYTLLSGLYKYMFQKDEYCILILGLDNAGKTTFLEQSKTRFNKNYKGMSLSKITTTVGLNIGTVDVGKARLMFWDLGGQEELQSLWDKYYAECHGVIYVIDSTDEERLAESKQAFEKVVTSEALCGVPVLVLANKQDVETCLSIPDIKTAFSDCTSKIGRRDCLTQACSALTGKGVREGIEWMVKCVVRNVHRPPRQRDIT
UniProt Q9H0F7: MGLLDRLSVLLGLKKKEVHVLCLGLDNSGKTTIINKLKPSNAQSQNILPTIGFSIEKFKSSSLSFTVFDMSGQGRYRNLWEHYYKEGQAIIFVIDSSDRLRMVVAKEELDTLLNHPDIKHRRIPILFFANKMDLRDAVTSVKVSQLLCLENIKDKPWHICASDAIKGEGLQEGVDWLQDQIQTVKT
UniProt Q6P6B7: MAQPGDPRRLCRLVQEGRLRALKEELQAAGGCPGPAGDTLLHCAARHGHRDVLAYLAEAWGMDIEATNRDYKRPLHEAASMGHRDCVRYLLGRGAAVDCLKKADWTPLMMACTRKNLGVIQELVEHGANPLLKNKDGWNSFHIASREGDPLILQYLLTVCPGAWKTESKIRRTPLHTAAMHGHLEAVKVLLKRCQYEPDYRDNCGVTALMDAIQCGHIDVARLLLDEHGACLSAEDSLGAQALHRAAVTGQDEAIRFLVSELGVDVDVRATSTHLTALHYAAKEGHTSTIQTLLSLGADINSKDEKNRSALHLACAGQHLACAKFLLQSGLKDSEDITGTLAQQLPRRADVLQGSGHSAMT
UniProt P61966: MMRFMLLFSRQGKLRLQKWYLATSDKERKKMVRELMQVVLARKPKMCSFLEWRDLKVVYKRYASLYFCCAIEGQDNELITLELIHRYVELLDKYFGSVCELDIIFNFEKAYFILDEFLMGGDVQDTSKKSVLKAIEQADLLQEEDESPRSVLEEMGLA

Compound: ClCC(=O)N[C@H]1CCCc2ccccc12
Assay: log2 mean competition ratio of IA-DTB cysteine labelling (DMSO/compound) (log2 ratio); higher = stronger cysteine engagement by compound
Conditions: 50 µM; treatment time: 4 h; cell line lysate: HEK293T
Method: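 IA-DTB competitive cysteine chemoproteomics in HEK293T RIPA lysate. Lysates were treated with compound 29 or 30 at 50 or 200 µM for 4 h, then IA-DTB (500 µM, 1 h), trypsin-digested, NeutrAvidin-enriched and analysed by diaPASEF. Competition ratio = intensity DMSO / intensity compound (n=4 treated, n=64 DMSO); binding: mean log2 CR ≥ 1 and p ≤ 0.05 plus QC filters. Target is the cysteine site.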

Row | Target | log2 mean competition ratio
1 | ANKMY2 C62 (UniProt Q8IV38) | -0.133
2 | ARV1 C30 (UniProt Q9H2C2) | 0.799
3 | ANKRD54 C230 (UniProt Q6NXT1) | -0.503
4 | ARHGAP17 C190 (UniProt Q68EM7) | -0.589
5 | ARFGEF1 C37 (UniProt Q9Y6D6) | -0.638
6 | ARHGAP35 C924 (UniProt Q9NRY4) | 0.181
7 | ASCC3 C704 (UniProt Q8N3C0) | 0.139
8 | ARAF C144 (UniProt P10398) | -0.289
9 | AP2B1 C123 (UniProt P63010) | -0.374
10 | ARMC6 C435 (UniProt Q6NXE6) | 0.459
11 | AP5S1 C21 (UniProt Q9NUS5) | -0.233
12 | ARFRP1 C154 (UniProt Q13795) | -0.0752
13 | ARL6 C22 (UniProt Q9H0F7) | -0.173
14 | ARHGEF18 C918 (UniProt Q6ZSZ5) | -0.0852
15 | ASMTL C274 (UniProt O95671) | -0.144
16 | ANKRD16 C194 (UniProt Q6P6B7) | 0.336
17 | ANKRD26 C735 (UniProt Q9UPS8) | -0.00782
18 | ARPC1B C70 (UniProt O15143) | -0.206
19 | ARL6 C148 (UniProt Q9H0F7) | 0.051
20 | AP1S1 C47 (UniProt P61966) | 0.159

Same assay, conditions: 200 µM; treatment time: 4 h; cell line lysate: HEK293T

Row | Target | log2 mean competition ratio
21 | ANKMY2 C62 (UniProt Q8IV38) | -0.0748
22 | ARV1 C30 (UniProt Q9H2C2) | -0.0076
23 | ANKRD54 C230 (UniProt Q6NXT1) | 0.167
24 | ARHGAP17 C190 (UniProt Q68EM7) | -0.221
25 | ARFGEF1 C37 (UniProt Q9Y6D6) | 0.188
26 | ARHGAP35 C924 (UniProt Q9NRY4) | -0.337
27 | ASCC3 C704 (UniProt Q8N3C0) | -0.155
28 | ARAF C144 (UniProt P10398) | -0.0993
29 | AP2B1 C123 (UniProt P63010) | -0.0802
30 | ARMC6 C435 (UniProt Q6NXE6) | 0.426
31 | AP5S1 C21 (UniProt Q9NUS5) | -0.07
32 | ARFRP1 C154 (UniProt Q13795) | 0.0425
33 | ARL6 C22 (UniProt Q9H0F7) | 0.167
34 | ARHGEF18 C918 (UniProt Q6ZSZ5) | 0.0106
35 | ASMTL C274 (UniProt O95671) | -0.0622
36 | ANKRD16 C194 (UniProt Q6P6B7) | 0.0582
37 | ANKRD26 C735 (UniProt Q9UPS8) | -0.108
38 | ARPC1B C70 (UniProt O15143) | 0.0779
39 | ARL6 C148 (UniProt Q9H0F7) | 0.0509
40 | AP1S1 C47 (UniProt P61966) | 0.254
